Reference: patent publication US20180014536A1, “AGENT FOR IMPROVING PLANT GROWTH AND METHOD FOR PRODUCING PLANT USING SAME” (FUSO CHEMICAL CO., LTD., priority 2015, published 2018)
Some results were stated once for a whole list of compounds, not compound by compound. For at least one compound, name, drawing or mass did not settle the structure.

System: cucumber
Assay: Verification experiment 6: dry stress
Assay type: in vivo
Settings: 18 days dry stress
Protocol: By use of cucumber, a resistance to dry stress was investigated. 3 ml of Zerumbone was added to cucumber seedlings immediately after germination. The cucumber seedlings were cultivated for 18 days. Meanwhile, another cucumber seedlings were cultivated for 18 days without Zerumbone added thereto. Throughout the cultivation period, a minimum amount of water was given and watering was conducted a minimum number of times so that the soil surface was always kept dry. […] A weight of each of the seedlings was measured. […] Note that, except for the agent, the cultivation conditions used were identical to those of the case where zerumbone was used.

C=C1CC/C=C(\C)CC[C@@H]2[C@@H]1CC2(C)C [β-caryophyllene]
average weight greater than the control samples: ≥ 8%
